Laboratory results: PubChem BioAssay AID493246 (Drosophila RNAi Screening Center, 2011)
The screen tested about 21,000 reagents; below is a random part of those that have a named target and a result. Over the whole deposit, 429 (2%) got an active call. 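Values are raw and not normalised between plates; calls rest on per-plate z-scores that were not deposited.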 Names joined by + are all predicted targets of the reagent. The record does not give: the amount of reagent, the time to read-out.

Test: 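Genome-wide search for dsRNAs that reduce cell number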 (primary screen)
Cells: Drosophila Kc and S2R+ cells
Reagent: long dsRNA against Drosophila genes
Measured: 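Cell number per well after knock-down, printed as raw plate values; calls were based on per-plate z-scores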
Reading the numbers: Kc cell number and S2R+ cell number: higher = more cells remaining
Rule for the call: 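Active when the per-plate z-score of cell number is 3 or more in the direction of fewer cells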

| gene knocked down | dsRNA | Kc cell number, rep 1 | Kc cell number, rep 2 | S2R+ cell number, rep 1 | S2R+ cell number, rep 2 | call |
| --- | --- | --- | --- | --- | --- | --- |
| Cp7Fc (Chorion protein c at 7F) | DRSC18035 | 1.53e6 | 1.49e6 | 1.04e6 | 1.19e6 | inactive |
| CG13384 | DRSC02258 | 1.08e6 | 1.44e6 | 4.13e5 | 3.27e5 | inactive |
| Nubp2 (NUBP iron-sulfur cluster assembly factor 2) | DRSC11758 | 1.58e6 | 1.70e6 | 1.47e6 | 1.57e6 | inactive |
| CG18609 | DRSC06775 | 1.61e6 | 1.68e6 | 1.26e6 | 1.40e6 | inactive |
| ACOX1 (acyl-CoA oxidase 1) | DRSC05941 | 1.33e6 | 1.42e6 | 1.14e6 | 1.16e6 | inactive |
| CG32054 | DRSC10684 | 1.75e6 | 1.81e6 | 1.38e6 | 1.49e6 | inactive |
| NaPi-III (Na[+]-dependent inorganic phosphate cotransporter type III) | DRSC10893 | 1.25e6 | 1.39e6 | 1.28e6 | 1.09e6 | inactive |
| NaPi-III (Na[+]-dependent inorganic phosphate cotransporter type III) | DRSC10894 | 1.35e6 | 1.36e6 | 8.80e5 | 1.01e6 | inactive |
| CG9701 | DRSC11093 | 1.65e6 | 1.73e6 | 1.16e6 | 1.27e6 | inactive |
| sloth2 + sloth1 | DRSC17922 | 1.54e6 | 1.47e6 | 1.05e6 | 1.17e6 | inactive |
| sloth2 + sloth1 | DRSC17923 | 1.55e6 | 1.50e6 | 1.06e6 | 1.16e6 | inactive |
| CG14007 | DRSC02339 | 1.51e6 | 1.19e6 | 1.12e6 | 1.23e6 | inactive |
| RpL10Ab (Ribosomal protein L10Ab) | DRSC10798 | 1.01e6 | 9.98e5 | 6.66e5 | 7.87e5 | active |
| Drep3 (DNA fragmentation factor-related protein 3) | DRSC06312 | 1.27e6 | 1.27e6 | 7.04e5 | 8.60e5 | inactive |
| CG17364 | DRSC10269 | 1.75e6 | 1.71e6 | 1.34e6 | 1.48e6 | inactive |
| CG17364 | DRSC10270 | 1.33e6 | 1.38e6 | 1.03e6 | 1.16e6 | inactive |
| CG13801 | DRSC08335 | 1.46e6 | 1.39e6 | 1.03e6 | 1.21e6 | inactive |
| CG32022 | DRSC09678 | 1.60e6 | 1.50e6 | 1.09e6 | 1.16e6 | inactive |
| ara (araucan) | DRSC11322 | 1.38e6 | 1.36e6 | 7.72e5 | 8.48e5 | active |
| MESR6 (Misexpression suppressor of ras 6) | DRSC10720 | 1.56e6 | 1.59e6 | 1.24e6 | 1.65e6 | inactive |
| CG5265 | DRSC15756 | 1.27e6 | 1.33e6 | 1.06e6 | 1.21e6 | inactive |
| Rpt2 (Regulatory particle triple-A ATPase 2) | DRSC16799 | 7.02e5 | 9.73e5 | 7.53e5 | 8.44e5 | active |
| PolZ2 (DNA polymerase zeta subunit 2) | DRSC12325 | 1.23e6 | 1.38e6 | 1.22e6 | 1.26e6 | inactive |
| dpr17 (defective proboscis extension response 17) | DRSC12885 | 1.33e6 | 1.52e6 | 1.06e6 | 1.13e6 | inactive |
| dpr17 (defective proboscis extension response 17) | DRSC14957 | 1.36e6 | 1.24e6 | 8.62e5 | 9.38e5 | inactive |
| dpr17 (defective proboscis extension response 17) | DRSC14958 | 1.66e6 | 1.55e6 | 1.28e6 | 1.34e6 | inactive |
| Dyro (Dpt-YFP repressor by overexpression) | DRSC10598 | 1.41e6 | 1.31e6 | 1.18e6 | 1.26e6 | inactive |
| Pp1alpha-96A (Protein phosphatase 1alpha at 96A) | DRSC16795 | 1.70e6 | 1.67e6 | 1.13e6 | 1.16e6 | inactive |
| Stt3A | DRSC20514 | 1.44e6 | 1.48e6 | 1.02e6 | 1.12e6 | inactive |
| CG14966 | DRSC08425 | 1.56e6 | 1.46e6 | 1.10e6 | 1.31e6 | inactive |
| U2af38 (U2 small nuclear riboprotein auxiliary factor 38) | DRSC00796 | 1.02e6 | 1.20e6 | 6.22e5 | 7.17e5 | inactive |
| Zmynd10 (Zinc finger MYND-type containing 10) | DRSC09826 | 1.38e6 | 1.33e6 | 1.21e6 | 1.25e6 | inactive |
| CG32023 | DRSC08946 | 1.44e6 | 1.54e6 | 1.18e6 | 1.33e6 | inactive |
| Atg101 (Autophagy-related 101) | DRSC20020 | 1.51e6 | 1.41e6 | 1.03e6 | 1.11e6 | inactive |
| GABA-B-R2 (metabotropic GABA-B receptor subtype 2) | DRSC14134 | 1.56e6 | 1.54e6 | 1.18e6 | 1.25e6 | inactive |
| CG14395 | DRSC14852 | 1.49e6 | 1.64e6 | 1.34e6 | 1.39e6 | inactive |
| CG14646 | DRSC12232 | 1.38e6 | 1.44e6 | 1.07e6 | 1.23e6 | inactive |
| CG6769 | DRSC20006 | 1.54e6 | 1.62e6 | 1.07e6 | 1.23e6 | inactive |
| ppk26 (pickpocket 26) | DRSC10991 | 1.67e6 | 1.59e6 | 1.09e6 | 1.20e6 | inactive |
| Tsp42Ei (Tetraspanin 42Ei) | DRSC06189 | 1.47e6 | 1.56e6 | 1.24e6 | 1.31e6 | inactive |
